Source: patent US20210371353A1, “FERTILIZER COMPOSITIONS AND PLANTS CONTAINING PROTOCATECHUIC ACID, AND USES THEREOF” (priority 2020, published 2021)

Tested on: lettuce
Test: PCA content analysis of lettuce leaves and soil by LC-MS-MS
Type: in vivo
Conditions: for PCA content: treatment at seeding, approximately eight weeks after sowing (table title says six weeks)

| Compound | PCA content relative to control (leaf, control leaf 1.34 ppm) [×] | PCA content (leaf) [ppm] | PCA content relative to control (soil, control soil <0.2 ppm) [×] | PCA content (soil) [ppm] |
| --- | --- | --- | --- | --- |
| O=C(O)c1ccc(O)c(O)c1 [PCA coating, protocatechuic acid] | 4.4 | 5.91 | <14.8 | 2.96 |
| O=C(O)c1ccc(O)c(O)c1 [PCA crystals, protocatechuic acid] | 7.4 | 9.88 | <29.4 | 5.87 |
